Three compounds from patent US10744181B2, “Glycopeptide derivatives for use in the treatment and/or prevention and/or attenuation of fibrosis diseases” (TFCHEM, priority 2017, dated 2020) can be followed below.

Values joined by “and” are separate entries in the source; they are usually repeats but may differ in a detail not shown here. Identical values can stand only once.

What all share (format): cell-based
Data set [1] relates to ELN. Briefly: RT-qPCR mRNA expression of ELN in aged human dermal fibroblasts. The conditions noted are these: 34 mM, 24 hours, aged human dermal fibroblasts (17th passage); PCR n=2.
In a further data set the test system is MMP1. Put plainly: RT-qPCR mRNA expression of MMP1 in aged human dermal fibroblasts. The settings on record: 34 mM, 24 hours, aged human dermal fibroblasts (17th passage); PCR n=2.
A further data set deals with TGFBR2. Briefly: RT-qPCR mRNA expression of TGFBR2 in normal human dermal fibroblasts. The settings on record: 94 mM, 24 hours, PCR n=2. On the technique in general: Quantitative PCR measures a nucleic acid by following its amplification.
The subject of a further data set is COL3A1. Briefly: RT-qPCR mRNA expression of COL3A1 in normal human dermal fibroblasts. The settings on record: 94 mM, 24 hours, PCR n=2.
The subject of data set [2] is ELN. Put plainly: RT-qPCR mRNA expression of ELN in normal human dermal fibroblasts. The settings on record: 94 mM, 24 hours, PCR n=2.
Another data set has as its system LEPR. Put plainly: RT-qPCR mRNA expression of LEPR in normal human dermal fibroblasts. The conditions noted are these: 94 mM, 24 hours, PCR n=2.
A further data set has as its system TFPI2. Briefly: RT-qPCR mRNA expression of TFPI2 in normal human dermal fibroblasts. The settings on record: 94 mM, 24 hours, PCR n=2.
A further data set relates to ACTA2. Put plainly: RT-qPCR mRNA expression of ACTA2 in normal human dermal fibroblasts. The settings on record: 94 mM, 24 hours, PCR n=2.
The next data set relates to PCOLCE. Briefly: RT-qPCR mRNA expression of PCOLCE in normal human dermal fibroblasts. The settings on record: 94 mM, 24 hours, PCR n=2.
In another data set the test system is COL8A1. Put plainly: RT-qPCR mRNA expression of COL8A1 in normal human dermal fibroblasts. The settings on record: 94 mM, 24 hours, PCR n=2.
For another data set, the system named is MMP3. Put plainly: RT-qPCR mRNA expression of MMP3 in normal human dermal fibroblasts. The settings on record: 94 mM, 24 hours, PCR n=2.
In another data set the test system is DCN. Briefly: RT-qPCR mRNA expression of DCN in normal human dermal fibroblasts. The settings on record: 94 mM, 24 hours, PCR n=2.
For a further data set, the system named is DPT. Put plainly: RT-qPCR mRNA expression of DPT in normal human dermal fibroblasts. The settings on record: 94 mM, 24 hours, PCR n=2.
A further data set concerns COL1A1. Put plainly: RT-qPCR mRNA expression of COL1A1 in normal human dermal fibroblasts. The conditions noted are these: 94 mM, 24 hours, PCR n=2.
The next data set has as its system FBLN5. Put plainly: RT-qPCR mRNA expression of FBLN5 in normal human dermal fibroblasts. The conditions noted are these: 94 mM, 24 hours, PCR n=2.

Take `N[C@@H](CCCCNCC(F)(F)[C@]1(O)O[C@H](CO)[C@H](O)[C@H](O)[C@H]1O)C(=O)O` [Compound 4]: in the data set with ELN [1], the “ELN Cycles” value is 29.72 and 30.04. Further, the “MMP1 Cycles” value with MMP1 is 18.33 and 18.35.

As to `C[C@H](NC(=O)[C@H](C)NC(=O)[C@@H](N)CCCCNCC(F)(F)[C@]1(O)O[C@H](CO)[C@H](O)[C@H](O)[C@H]1O)C(=O)O` [Compound 1], in the data set with TGFBR2, the “TGFBR2 Cycles” value was 27.51 and 27.26. The “COL3A1 Cycles” value in the data set with COL3A1 is 22.87 and 22.72. In addition, in the data set on ELN [2], the “ELN Cycles” value was 27.17 and 27.16. Further, the “LEPR Cycles” value with LEPR was 29.16 and 29.64. The “TFPI2 Cycles” value in the data set with TFPI2 was 26.14 and 26.01. Besides, the “ACTA2 Cycles” value in the data set with ACTA2 is 26.87 and 26.76. Further, the “PCOLCE Cycles” value in the data set with PCOLCE was 22.02 and 22.04. Also, in the data set on COL8A1, the “COL8A1 Cycles” value was 24.57 and 24.51. Also, in the data set on MMP1, the “MMP1 Cycles” value was 17.53 and 17.60. In addition, the “MMP3 Cycles” value with MMP3 is 20.88 and 20.97. The “DCN Cycles” value in the data set with DCN was 19.94 and 19.89. The “DPT Cycles” value with DPT was 24.18 and 24.14. The “COL1A1 Cycles” value in the data set with COL1A1 is 17.13 and 17.03. Moreover, in the data set on FBLN5, the “FBLN5 Cycles” value was 24.21 and 24.06.

For the compound `C[C@H](NC(=O)[C@@H](N)CCCCNCC(F)(F)[C@]1(O)O[C@H](CO)[C@H](O)[C@H](O)[C@H]1O)C(=O)O` [Compound 3], the “ELN Cycles” value in the data set on ELN [1] is 28.99 and 29.28. For the same compound, the “MMP1 Cycles” value in the data set with MMP1 was 18.93 and 18.81.
